Drawing on the supplement of paper PMC12819154, “High-throughput peptide-centric local stability assay extends protein–ligand identification to membrane proteins, tissues and bacteria” (Nature Structural & Molecular Biology, 2025), this text covers log2 fold change for 11 targets.

The chains behind the UniProt entries cited, without tags or fusion partners. Where a name states a change or a piece, a line headed by the entry shows the natural chain unless it says otherwise.
UniProt Q99020: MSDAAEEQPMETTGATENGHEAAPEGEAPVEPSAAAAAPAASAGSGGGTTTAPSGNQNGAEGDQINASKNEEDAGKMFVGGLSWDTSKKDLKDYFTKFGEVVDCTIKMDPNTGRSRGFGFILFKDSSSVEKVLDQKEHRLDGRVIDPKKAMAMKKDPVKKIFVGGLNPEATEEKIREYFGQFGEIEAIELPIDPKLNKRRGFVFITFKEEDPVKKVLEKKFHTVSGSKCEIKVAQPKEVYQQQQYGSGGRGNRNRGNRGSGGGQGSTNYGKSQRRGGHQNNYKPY
UniProt Q923B0: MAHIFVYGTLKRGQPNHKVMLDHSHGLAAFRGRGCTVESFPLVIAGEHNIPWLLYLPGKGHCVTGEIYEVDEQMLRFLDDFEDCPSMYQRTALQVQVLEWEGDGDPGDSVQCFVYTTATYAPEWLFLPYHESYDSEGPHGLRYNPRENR
UniProt Q920A5: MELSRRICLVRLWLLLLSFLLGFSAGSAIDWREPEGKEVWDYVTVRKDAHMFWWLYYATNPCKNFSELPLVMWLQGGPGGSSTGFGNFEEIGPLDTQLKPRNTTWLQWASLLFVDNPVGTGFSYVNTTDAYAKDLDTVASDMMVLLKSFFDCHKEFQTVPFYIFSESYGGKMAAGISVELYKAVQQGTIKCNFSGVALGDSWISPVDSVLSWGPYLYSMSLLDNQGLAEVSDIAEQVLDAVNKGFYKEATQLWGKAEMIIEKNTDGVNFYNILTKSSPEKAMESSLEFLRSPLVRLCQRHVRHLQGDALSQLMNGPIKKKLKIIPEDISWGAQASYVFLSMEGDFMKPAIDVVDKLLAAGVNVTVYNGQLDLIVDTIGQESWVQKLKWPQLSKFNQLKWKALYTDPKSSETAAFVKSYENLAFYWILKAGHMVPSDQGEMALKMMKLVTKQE
UniProt Q923B6: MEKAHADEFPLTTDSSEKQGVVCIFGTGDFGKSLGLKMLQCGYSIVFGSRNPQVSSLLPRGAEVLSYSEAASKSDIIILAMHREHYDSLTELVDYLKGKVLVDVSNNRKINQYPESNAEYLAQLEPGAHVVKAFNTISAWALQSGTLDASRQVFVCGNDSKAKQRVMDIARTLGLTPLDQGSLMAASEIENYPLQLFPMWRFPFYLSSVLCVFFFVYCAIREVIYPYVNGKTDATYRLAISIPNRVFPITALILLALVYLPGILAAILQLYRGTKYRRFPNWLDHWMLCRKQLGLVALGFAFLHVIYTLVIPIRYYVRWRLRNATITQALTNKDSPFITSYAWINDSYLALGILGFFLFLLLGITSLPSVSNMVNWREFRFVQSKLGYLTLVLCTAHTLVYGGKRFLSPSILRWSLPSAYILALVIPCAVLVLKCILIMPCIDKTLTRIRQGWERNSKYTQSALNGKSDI
UniProt Q93092: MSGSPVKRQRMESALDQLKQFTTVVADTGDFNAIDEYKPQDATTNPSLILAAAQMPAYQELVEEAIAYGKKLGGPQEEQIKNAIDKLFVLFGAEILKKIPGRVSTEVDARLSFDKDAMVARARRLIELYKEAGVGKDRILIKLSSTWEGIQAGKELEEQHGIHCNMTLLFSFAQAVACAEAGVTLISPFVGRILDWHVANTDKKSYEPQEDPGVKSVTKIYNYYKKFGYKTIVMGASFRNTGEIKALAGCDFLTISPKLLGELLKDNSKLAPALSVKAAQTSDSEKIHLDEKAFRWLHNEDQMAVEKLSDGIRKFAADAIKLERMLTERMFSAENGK
UniProt Q99JX1: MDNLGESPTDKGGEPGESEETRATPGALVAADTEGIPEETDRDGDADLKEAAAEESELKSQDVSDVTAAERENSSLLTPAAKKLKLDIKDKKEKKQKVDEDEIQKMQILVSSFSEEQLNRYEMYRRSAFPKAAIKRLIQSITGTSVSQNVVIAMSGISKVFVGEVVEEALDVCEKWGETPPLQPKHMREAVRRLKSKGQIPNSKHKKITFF
UniProt Q922Z0: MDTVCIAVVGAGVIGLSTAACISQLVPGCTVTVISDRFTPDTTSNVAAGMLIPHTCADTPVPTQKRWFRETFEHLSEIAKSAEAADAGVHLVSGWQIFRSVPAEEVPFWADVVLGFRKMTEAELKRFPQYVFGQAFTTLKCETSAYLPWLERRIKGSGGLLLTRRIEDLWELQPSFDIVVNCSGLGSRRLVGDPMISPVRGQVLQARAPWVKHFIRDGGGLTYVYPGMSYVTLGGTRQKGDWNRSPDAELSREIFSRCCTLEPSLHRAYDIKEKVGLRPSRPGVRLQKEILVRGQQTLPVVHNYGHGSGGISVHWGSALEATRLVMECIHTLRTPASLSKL
UniProt Q91ZV0: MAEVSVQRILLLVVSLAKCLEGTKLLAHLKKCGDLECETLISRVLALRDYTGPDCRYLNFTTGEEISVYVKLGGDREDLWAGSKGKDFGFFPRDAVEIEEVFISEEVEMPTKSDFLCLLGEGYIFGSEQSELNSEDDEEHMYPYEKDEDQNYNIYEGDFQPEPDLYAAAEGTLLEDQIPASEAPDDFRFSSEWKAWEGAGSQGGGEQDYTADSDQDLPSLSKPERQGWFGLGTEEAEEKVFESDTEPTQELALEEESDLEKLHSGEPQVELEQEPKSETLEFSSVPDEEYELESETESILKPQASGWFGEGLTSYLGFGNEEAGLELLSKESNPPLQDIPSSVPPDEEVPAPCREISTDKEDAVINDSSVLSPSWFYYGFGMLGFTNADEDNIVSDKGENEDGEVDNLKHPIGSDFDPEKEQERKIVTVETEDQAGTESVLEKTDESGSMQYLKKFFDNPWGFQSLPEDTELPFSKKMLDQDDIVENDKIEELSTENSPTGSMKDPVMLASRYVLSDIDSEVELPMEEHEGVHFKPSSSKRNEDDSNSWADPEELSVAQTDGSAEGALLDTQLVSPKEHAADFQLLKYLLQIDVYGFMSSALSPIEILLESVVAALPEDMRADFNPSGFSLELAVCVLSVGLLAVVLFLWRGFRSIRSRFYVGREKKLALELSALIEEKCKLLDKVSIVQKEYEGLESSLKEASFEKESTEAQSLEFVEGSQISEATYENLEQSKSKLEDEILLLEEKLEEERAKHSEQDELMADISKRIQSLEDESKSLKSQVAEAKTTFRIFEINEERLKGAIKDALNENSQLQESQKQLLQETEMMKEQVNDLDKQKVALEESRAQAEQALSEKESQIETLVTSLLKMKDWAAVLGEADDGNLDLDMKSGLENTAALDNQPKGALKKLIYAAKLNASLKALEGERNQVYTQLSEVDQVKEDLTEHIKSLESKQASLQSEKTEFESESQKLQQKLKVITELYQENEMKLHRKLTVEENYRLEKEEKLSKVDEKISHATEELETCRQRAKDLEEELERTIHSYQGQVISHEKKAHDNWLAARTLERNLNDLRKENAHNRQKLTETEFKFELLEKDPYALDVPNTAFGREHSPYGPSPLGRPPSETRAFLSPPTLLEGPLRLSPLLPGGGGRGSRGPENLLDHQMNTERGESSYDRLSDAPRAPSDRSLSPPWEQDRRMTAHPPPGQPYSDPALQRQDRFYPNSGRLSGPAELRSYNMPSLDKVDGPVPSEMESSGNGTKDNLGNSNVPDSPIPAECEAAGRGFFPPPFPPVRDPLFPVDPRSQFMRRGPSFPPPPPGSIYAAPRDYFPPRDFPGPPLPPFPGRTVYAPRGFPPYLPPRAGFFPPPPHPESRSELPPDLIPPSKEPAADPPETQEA
UniProt Q925E0: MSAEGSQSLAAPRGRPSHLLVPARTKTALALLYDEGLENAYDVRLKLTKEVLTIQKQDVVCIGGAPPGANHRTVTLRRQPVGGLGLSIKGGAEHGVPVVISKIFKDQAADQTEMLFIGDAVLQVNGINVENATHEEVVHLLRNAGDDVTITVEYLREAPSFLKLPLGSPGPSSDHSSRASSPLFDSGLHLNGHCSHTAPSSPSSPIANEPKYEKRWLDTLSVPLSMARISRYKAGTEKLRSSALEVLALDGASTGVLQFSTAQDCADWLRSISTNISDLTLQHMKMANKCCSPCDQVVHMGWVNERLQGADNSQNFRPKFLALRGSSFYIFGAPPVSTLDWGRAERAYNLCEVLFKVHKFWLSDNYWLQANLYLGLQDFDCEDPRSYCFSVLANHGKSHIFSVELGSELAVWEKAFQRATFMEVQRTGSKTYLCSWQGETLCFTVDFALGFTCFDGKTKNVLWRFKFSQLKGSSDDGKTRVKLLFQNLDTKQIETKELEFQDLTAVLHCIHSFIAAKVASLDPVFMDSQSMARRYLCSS
UniProt Q924T3: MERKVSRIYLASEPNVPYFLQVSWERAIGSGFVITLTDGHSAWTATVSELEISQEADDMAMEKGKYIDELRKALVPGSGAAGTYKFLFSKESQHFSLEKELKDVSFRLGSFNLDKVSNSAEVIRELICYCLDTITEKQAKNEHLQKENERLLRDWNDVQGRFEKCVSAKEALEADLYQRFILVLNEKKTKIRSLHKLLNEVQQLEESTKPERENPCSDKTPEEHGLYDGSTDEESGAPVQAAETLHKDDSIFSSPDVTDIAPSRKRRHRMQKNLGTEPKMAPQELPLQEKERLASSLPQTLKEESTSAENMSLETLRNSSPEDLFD
UniProt Q99J27: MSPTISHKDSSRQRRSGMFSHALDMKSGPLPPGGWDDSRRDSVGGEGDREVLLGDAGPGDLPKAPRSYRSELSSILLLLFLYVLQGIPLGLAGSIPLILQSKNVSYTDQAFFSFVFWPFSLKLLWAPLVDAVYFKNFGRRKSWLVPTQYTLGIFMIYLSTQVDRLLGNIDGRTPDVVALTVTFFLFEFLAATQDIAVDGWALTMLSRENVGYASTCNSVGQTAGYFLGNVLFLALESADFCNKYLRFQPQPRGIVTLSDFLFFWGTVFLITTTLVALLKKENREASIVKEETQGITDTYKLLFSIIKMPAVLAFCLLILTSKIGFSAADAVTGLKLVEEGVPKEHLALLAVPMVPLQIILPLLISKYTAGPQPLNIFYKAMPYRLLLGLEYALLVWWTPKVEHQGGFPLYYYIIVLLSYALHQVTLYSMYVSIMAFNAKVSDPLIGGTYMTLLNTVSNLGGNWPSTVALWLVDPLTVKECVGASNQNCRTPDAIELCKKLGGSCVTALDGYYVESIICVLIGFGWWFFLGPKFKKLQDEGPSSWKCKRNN

The list shows a part of the results. Most entries show no effect beyond the scatter of the controls.

Compound in this assay: CN[C@@H]1C[C@H]2O[C@@](C)([C@@H]1OC)n1c3ccccc3c3c4c(c5c6ccccc6n2c5c31)C(=O)NC4 [staurosporine]
The assay can be described thus: log2 fold change of tryptic peptide abundance, ligand vs vehicle (limited proteolysis) (log2 ratio); higher = more trypsin-susceptible (destabilized). Particulars: ligand concentration: 20 uM; sample: mouse liver crude lysate; replicate design: treated separately.
On to “UniProt Q99020 (peptide sequence: IFVGGLNPEATEEKIR, peptide start residue: 161)”, for which the log2 fold change is -0.108. The result for “UniProt Q923B0 (peptide sequence: VMLDHSHGLAAFR, peptide start residue: 19)” reads -0.128; that for “UniProt Q920A5 (peptide sequence: EATQLWGK, peptide start residue: 248)”, -0.0988; that for “UniProt Q923B6 (peptide sequence: SDIIILAMHR, peptide start residue: 74)”, -0.747. Take “UniProt Q93092 (peptide sequence: TIVMGASFR, peptide start residue: 231)”: the log2 fold change is 0.25.

Turning to “UniProt Q99JX1 (peptide sequence: ENSSLLTPAAK, peptide start residue: 72)”, the log2 fold change came to 0.387. Turning to “UniProt Q922Z0 (peptide sequence: SPDAELSR, peptide start residue: 245)”, the log2 fold change turned out to be 0.247. For “UniProt Q91ZV0 (peptide sequence: TDESGSMQYLK, peptide start residue: 444)” the value was 0.715. “UniProt Q925E0 (peptide sequence: EAPSFLKLPLGSPGPSSDHSSR, peptide start residue: 157)”: the log2 fold change was -0.431. For “UniProt Q924T3 (peptide sequence: MAPQELPLQEKER, peptide start residue: 280)” the value was -0.441; for “UniProt Q99J27 (peptide sequence: DSVGGEGDREVLLGDAGPGDLPKAPR, peptide start residue: 41)”, -0.372.
